Laboratory results reported in patent US20160177395A1, “BIOMARKERS FOR THE PREDICTION OF RENAL INJURY” (priority 2007, published 2016).

Test system: rat kidney samples
Test: Random-Forest classifiers applied to un-labeled samples of T1, T2, T3 and control (Table 30)
Settings: for Average 'Toxic' (%): average of the two classifiers
Protocol: To validate the optimal signature for classification of renal toxicity of a compound after five days of application a test of the signatory polynucleotide/gene expression in rat kidney samples consisting of tissues from rats exposed to three drug compounds and a single control group was carried out (Teva Pharmaceutical Industries, IL).
The two optimal classifiers (signatures described in Tables 26 and 27) were applied to the qRT-PCR reads of the un-labeled samples and their calls was used to assign a level of toxicity to each group and, eventually, each compound.
The classifiers described in Tables 26 and 27, were used for testing the un-labeled samples. Both classifiers were applied to the measurements of each sample, used the 30% bound from above, and the number of samples pass that bound in each group were summarized.

In the case of `Nc1nc2ccc(OC(F)(F)F)cc2s1` [T3, 6-(trifluoromethoxy)benzothiazol-2-amine], the “Average 'Toxic' (%)” value (Ds1 Day1 Female) is reported as 0.2%, the “Average 'Toxic' (%)” value (Ds1 Day1 Male) is reported as 0% and the “Average 'Toxic' (%)” value (Ds1 Day5 Female) is reported as 0.085%. The “Average 'Toxic' (%)” value (Ds1 Day5 Male) was 0.5%, the “Average 'Toxic' (%)” value (Ds2 Day1 Female) was 0.2% and the “Average 'Toxic' (%)” value (Ds2 Day1 Male) was 0.3%. The “Average 'Toxic' (%)” value (Ds2 Day5 Female) was 0.2%, the “Average 'Toxic' (%)” value (Ds2 Day5 Male) was 0.375% and the “Toxicity conclusion from classifier calls” value (signatures of Tables 26 and 27, 30% bound) was “either real false-positive of the classifier, or a result of some technical problem”.
